# Measurements: patent US10517871B2, “Survivin-targeting anti-tumor agents and uses thereof” (Indiana University Research and Technology Corporation, priority 2015, dated 2019)
# Some of these results come from one statement about several compounds together. At least one compound was matched to its structure with a doubt left.
# How the values were obtained:
# PC-3 cells = assay: MTT cell survival assay, PC-3; format: cell-based, human; conditions: PC-3, 20 μM compound, 3 days, normalized to DMSO
# Description: (§1) Human prostate cancer cell lines DU145 (top) and PC3 cells (bottom) were cultured in the presence of vehicle DMSO or 20 μM compounds off in-silico screening for 3 days followed by MTT assay. Cells survived in the presence of various compounds were normalized to that treated by DMSO vehicle. Arrows indicate compounds that inhibited >50% in cell survival. (*p<0.05; **p<0.01).
# (§2) These assays were performed as previously described^49,50. Briefly, MTT assay were performed by seeding 2500 cells in 96-well plate and cultured 24 hours before addition of survivin inhibitors at different concentrations and continuous culture for 3 days. The cells were then subjected to MTT assay. For colony formation assay, 100 cells/well were seeded in 6-well plates and cultured for 24 hours before addition of survivin inhibitors or DMSO vehicle. The cells were continuously cultured in the presence of survivin inhibitors or DMSO for 10-14 days followed by staining with crystal violet and counting manually.
# DU145 cells = assay: MTT cell survival assay, DU145; format: cell-based, human; conditions: DU145, 20 μM compound, 3 days, normalized to DMSO
# Description: as §1, §2
structure (smiles),measurement,setting,value
Cc1cccc(Nc2nc3nonc3nc2N/N=C/c2ccc(-c3cccc(C(=O)O)c3)o2)c1C [LQZ-7],inhibition of cell survival,PC-3 cells,≥ 50%
same,inhibition of cell survival,DU145 cells,≥ 50%
